## Primary screen of a compound library

Chains of the proteins cited; added tags and fusions are not shown. Residues count along the entry.
UniProt Q4DA54, 1-478: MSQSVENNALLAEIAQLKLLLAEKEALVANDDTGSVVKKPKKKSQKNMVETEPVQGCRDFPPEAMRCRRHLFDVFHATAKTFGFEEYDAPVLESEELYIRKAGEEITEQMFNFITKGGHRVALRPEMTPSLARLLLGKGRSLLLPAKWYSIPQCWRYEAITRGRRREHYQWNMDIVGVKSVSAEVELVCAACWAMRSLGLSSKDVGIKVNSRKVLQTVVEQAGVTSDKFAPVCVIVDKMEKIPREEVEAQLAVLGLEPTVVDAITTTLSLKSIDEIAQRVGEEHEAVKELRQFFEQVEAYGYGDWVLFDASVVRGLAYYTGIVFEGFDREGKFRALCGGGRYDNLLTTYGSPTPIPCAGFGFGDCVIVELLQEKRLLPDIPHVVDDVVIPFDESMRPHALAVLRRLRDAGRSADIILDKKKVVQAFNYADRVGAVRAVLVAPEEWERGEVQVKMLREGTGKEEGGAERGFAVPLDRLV
UniProt P9WPC5, whole entry: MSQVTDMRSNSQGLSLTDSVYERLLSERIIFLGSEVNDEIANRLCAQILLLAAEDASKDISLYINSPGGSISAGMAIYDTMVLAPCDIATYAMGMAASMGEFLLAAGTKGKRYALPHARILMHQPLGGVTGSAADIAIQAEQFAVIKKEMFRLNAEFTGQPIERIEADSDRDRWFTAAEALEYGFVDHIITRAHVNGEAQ
UniProt P9WPC3, whole entry partner: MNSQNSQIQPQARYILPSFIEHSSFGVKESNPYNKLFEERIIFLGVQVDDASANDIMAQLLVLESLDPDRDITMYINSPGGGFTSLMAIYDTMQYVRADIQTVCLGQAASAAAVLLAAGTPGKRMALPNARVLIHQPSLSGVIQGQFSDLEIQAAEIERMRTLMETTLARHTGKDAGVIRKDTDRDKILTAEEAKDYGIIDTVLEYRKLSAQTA
UniProt Q8IDJ8, 1-583: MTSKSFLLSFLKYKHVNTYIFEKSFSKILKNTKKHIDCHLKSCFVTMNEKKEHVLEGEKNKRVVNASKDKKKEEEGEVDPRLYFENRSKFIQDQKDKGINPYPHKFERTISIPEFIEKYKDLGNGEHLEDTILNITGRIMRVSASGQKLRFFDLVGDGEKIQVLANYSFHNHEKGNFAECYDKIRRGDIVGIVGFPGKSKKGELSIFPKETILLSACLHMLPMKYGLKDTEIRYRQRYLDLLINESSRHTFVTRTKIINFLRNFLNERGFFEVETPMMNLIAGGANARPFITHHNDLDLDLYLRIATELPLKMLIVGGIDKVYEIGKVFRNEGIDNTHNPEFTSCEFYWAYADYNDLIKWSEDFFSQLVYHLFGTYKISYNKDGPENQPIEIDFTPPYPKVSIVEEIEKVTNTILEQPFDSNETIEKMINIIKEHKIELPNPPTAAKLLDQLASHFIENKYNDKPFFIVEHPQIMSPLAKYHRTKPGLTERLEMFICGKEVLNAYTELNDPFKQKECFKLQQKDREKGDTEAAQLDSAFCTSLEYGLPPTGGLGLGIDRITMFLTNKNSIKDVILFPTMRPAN

Source: ChEMBL document CHEMBL3988442, “University of Dundee, Small-Polar-MMV Screening Library” (2021).

Leishmania in macrophages: 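Cell assay of Leishmania donovani living inside macrophages; the read-out is not stated. Tested at 30 µM. Direction is inferred from retests: higher values go with stronger inhibition. Size under these conditions: about 69,000 compounds, about 1,000 of them at 50% or above in at least one test.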
TcHisRS: 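Enzyme assay of histidyl-tRNA synthetase; the read-out is not stated. Target: Histidine-tRNA ligase, Trypanosoma cruzi CL Brener (UniProt Q4DA54). Tested at 30 µM. The record gives no direction; compounds that gave an IC50 in retests scored well above the rest, so higher reads as stronger inhibition. Of about 69,000 compounds tested this way, about 31 (0.045%) reached 50% or more in at least one test.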
ClpP1P2: 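ClpP1P2, Mycobacterium tuberculosis (UniProt P9WPC5 and UniProt P9WPC3). Protease assay of ClpP1P2, read by the AMC dye that it sets free. Compounds at 50 µM. Higher reads as stronger inhibition, judged from the few compounds that gave an IC50. Most other retested compounds had strongly negative values. Of about 69,000 compounds tested this way, about 10 (0.015%) reached 50% or more in at least one test.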
Toxoplasma: 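Assay of Toxoplasma gondii numbers, read through their beta-galactosidase reporter with a colour substrate. Tested at 10 µM. The record gives no direction; the compounds picked for IC50 retests had high values, so higher reads as fewer parasites. Of about 67,000 compounds tested this way, about 260 (0.38%) reached 50% or more in at least one test.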
PfKRS1: 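Enzyme assay of the cytosolic lysyl-tRNA synthetase in 384-well plates, read by luminescence. Target: Lysine-tRNA ligase, Plasmodium falciparum 3D7 (UniProt Q8IDJ8). Compounds at 30 µM. Higher reads as stronger inhibition, judged from the few compounds that gave an IC50. About 69,000 compounds were tested under these conditions; 0.071% (about 49) showed 50% or more at least once.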

Each number is a percent effect as filed. The record does not define 0% and 100%; most values in the screen are far below 50% and negative numbers occur (in some assays of this library far below -100). Compounds were drawn at random from those tested, without regard to their results. Two or more numbers in one place are separate tests of the same structure; such repeats can differ widely.

{"structure": "O=C(c1cccnc1-n1cncn1)N1CCN(c2ccccc2)CC1", "Leishmania in macrophages": 6.511, "TcHisRS": 3.941, "ClpP1P2": 0.005173, "Toxoplasma": -4.425, "PfKRS1": 3.497}
{"structure": "CSCC(=O)N1CCc2c(cnc(C)c2-c2noc(-c3cc[nH]n3)n2)C1", "Leishmania in macrophages": 14.98, "TcHisRS": -2.051, "ClpP1P2": -18.08, "Toxoplasma": 10.66, "PfKRS1": 0.5805}
{"structure": "O=C(C1CCC1)N1CCOc2cccc(F)c21", "Leishmania in macrophages": 14.13, "TcHisRS": 3.158, "ClpP1P2": 1.43, "Toxoplasma": -14.31, "PfKRS1": 7.686}
{"structure": "Cn1ncc(N2CCC(CNC3CC(c4ccccc4)C3)CC2)cc1=O", "stereo": "stereo not shown", "Leishmania in macrophages": 16.59, "TcHisRS": 8.247, "ClpP1P2": -7.292, "Toxoplasma": -13.18, "PfKRS1": 1.866}
{"structure": "CCn1nc2c(cc1=O)CN(Cc1nc(-c3cccs3)no1)CC2", "Leishmania in macrophages": 27.54, "TcHisRS": 9.605, "ClpP1P2": -35.55, "Toxoplasma": 10.75, "PfKRS1": -0.5567}
{"structure": "O=C(Cc1cccnc1)N1CCCC2(CCN(CC3CCOCC3)C2)C1", "stereo": "stereo not shown", "Leishmania in macrophages": 37.91, "TcHisRS": 0.8, "ClpP1P2": 1.7, "Toxoplasma": 2.473, "PfKRS1": 5.122}
{"structure": "[H][C@@]12C[C@@H](O)C[C@]1([H])CN(Cc1cc(C(C)(C)C)ccc1OCC(N)=O)C2", "Leishmania in macrophages": 43.41, "Toxoplasma": -5.932}
{"structure": "COCCCN1CC2(CCCN(CCn3cc(Cl)cn3)C2)CCC1=O", "stereo": "stereo not shown", "Leishmania in macrophages": -54.7, "TcHisRS": 4.478, "ClpP1P2": -14.77, "Toxoplasma": -11.96, "PfKRS1": 1.076}
{"structure": "Cc1cccc(CN2C[C@H]3C[C@H](C(=O)NCc4cccnc4)[C@@H](C2)O3)c1", "TcHisRS": 4.908, "ClpP1P2": 5.991, "PfKRS1": 0.6428}
{"structure": "[H][C@]12CC[C@]([H])(CN(C(=O)CCS(C)(=O)=O)C1)N(Cc1ccccn1)C2=O", "Leishmania in macrophages": -5.333, "Toxoplasma": -0.1739}
{"structure": "CC(CN1CCOCC1)NC(=O)NCc1ccc(Cl)s1", "stereo": "stereo not shown", "Leishmania in macrophages": 36.06, "TcHisRS": 4.348, "ClpP1P2": -5.474, "Toxoplasma": 1.659, "PfKRS1": 6.349}
{"structure": "COc1ccc(CN2C[C@@H](OCc3ccccn3)[C@H]3COC[C@H]32)cc1", "TcHisRS": 1.657, "ClpP1P2": 5.42, "PfKRS1": 9.512}
{"structure": "COc1ccc(-c2nc(CN3CCN(CCO)CC3)co2)cc1", "Leishmania in macrophages": 8.972, "TcHisRS": 2.29, "ClpP1P2": 19.73, "Toxoplasma": -1.165, "PfKRS1": -0.1275}
{"structure": "CCc1ccc(C(O)CN2CCN(c3cccc(OC)c3)CC2)cc1", "stereo": "stereo not shown", "Leishmania in macrophages": "6.495 and 10.59", "TcHisRS": -1.22, "ClpP1P2": 8.25, "Toxoplasma": -11.36, "PfKRS1": 7.409}
{"structure": "COCCC(=O)N1CCC2(CCCN(Cc3cc(OC)ccc3F)C2)C1", "stereo": "stereo not shown", "Leishmania in macrophages": -8.516, "TcHisRS": -0.9901, "ClpP1P2": -14.79, "Toxoplasma": 6.088, "PfKRS1": 4.743}
{"structure": "CC(C)CN(Cc1ccc(O)c(C(=O)O)c1)Cc1ccccn1", "Leishmania in macrophages": -23.52, "TcHisRS": 1.087, "ClpP1P2": -2.934, "Toxoplasma": -4.908, "PfKRS1": 3.552}
{"structure": "CCc1cc(NCCCN(C)C2CCCC2)ncn1", "Leishmania in macrophages": 22.72, "TcHisRS": 0.4292, "ClpP1P2": 14.58, "Toxoplasma": 21.39, "PfKRS1": 3.794}
{"structure": "CCn1ccnc1CN1CCN(C(C)C(=O)NC2CCCCC2)CC1", "stereo": "stereo not shown", "Leishmania in macrophages": 1.566, "TcHisRS": 1.901, "ClpP1P2": 6.73, "Toxoplasma": -2.541, "PfKRS1": -3.48}
{"structure": "COc1ccc(-c2nc(CN3CC(n4cccn4)C3)no2)cc1", "Leishmania in macrophages": 19.38, "TcHisRS": 6.726, "ClpP1P2": -11.69, "Toxoplasma": 29.21, "PfKRS1": 3.662}
{"structure": "CNC(=O)C(C)(C)N1CCC[C@H]1C(=O)NCC(C)C", "TcHisRS": 0, "ClpP1P2": -0.9442, "PfKRS1": 5.956}
{"structure": "Cc1nn(CCO)c(C)c1CNC1CCOc2ccccc21.Cl", "stereo": "stereo not shown", "Leishmania in macrophages": 13.68, "Toxoplasma": 0.1357}
{"structure": "Cc1nn(C)c(Cl)c1C1CCCN1C(=O)CCNc1ncccn1", "stereo": "stereo not shown", "Leishmania in macrophages": 29.63, "TcHisRS": 6.286, "ClpP1P2": 1.698, "Toxoplasma": 1.85, "PfKRS1": 0.2213}
{"structure": "CCNC(=O)NC(C)c1nc(-c2ccc(Br)cc2)no1", "stereo": "stereo not shown", "Leishmania in macrophages": 26.95, "TcHisRS": -0.5525, "ClpP1P2": -0.4095, "Toxoplasma": -1.163, "PfKRS1": 1.228}
{"structure": "CS(=O)(=O)NCc1cncc2c1CCN(C(=O)c1ccccn1)C2", "Leishmania in macrophages": 8.307, "TcHisRS": -0.9524, "ClpP1P2": -7.981, "Toxoplasma": 14.1, "PfKRS1": 0.3302}

The last 2 entries again:

structure	Leishmania in macrophages	TcHisRS	ClpP1P2	Toxoplasma	PfKRS1
CCNC(=O)NC(C)c1nc(-c2ccc(Br)cc2)no1 (stereo not shown)	26.95	-0.5525	-0.4095	-1.163	1.228
CS(=O)(=O)NCc1cncc2c1CCN(C(=O)c1ccccn1)C2	8.307	-0.9524	-7.981	14.1	0.3302